Data reported in PubChem BioAssay AID540256 (National Center for Advancing Translational Sciences (NCATS), 2011).
Hit rate of the full screen: of about 300,000 compounds, about 3,700 (1.2%) were called active. Inconclusive results, whose numbers are uncertain, are shown with a selection of clear calls. Calls follow the shape of the full dose curve; tested in HEK293 cells. Potencies of inconclusive entries are doubtful fits and often do not repeat.

Assay: qHTS for Inhibitors of binding or entry into cells for Lassa Virus; also: nearly all actives have a fitted effect of over 50% in size
Conditions: Lassa virus pseudotype entry inhibition, cell reporter; activity change, negative = inhibition: at 37.9 µM (top of the series) unless noted
% is scaled to controls: 0 for no effect and ±100 for the full control effect; potency is read from the fitted curve at half-maximal effect.

| Compound | Potency | activity change, negative = inhibition |
| --- | --- | --- |
| O=C(Nc1cccnc1)c1cc2c(ccc3ccccc32)o1 | inconclusive: 11.6 µM [inhibitor, partial curve, poor fit] |  |
| Cc1cccc(CN2CCN(C3CCCC3)C(CCO)C2)n1 (centres undefined) | inactive |  |
| O=C(Nc1ccc2c(c1)OCO2)c1ccc(Cl)c(S(=O)(=O)N2CCOCC2)c1 | inactive |  |
| NC(=O)CSc1nnnn1CC(CC(=O)O)c1ccccc1 (centres undefined) | inconclusive: 0.651 µM [activator, partial curve, poor fit] |  |
| COc1ccc(OC)c(-c2csc(N(Cc3ccco3)C(=O)c3ccco3)n2)c1 | inconclusive: 0.562 µM [inhibitor, full curve, poor fit] |  |
| Oc1cccc(/C=N/Nc2ncnc3c2ncn3Cc2ccccc2)c1 | inactive |  |
| COc1ccccc1CNC(=O)c1cc(S(=O)(=O)N2CCCC(C)C2)cn1C (centres undefined) | inconclusive: 35.5 µM [inhibitor, single point] |  |
| CCC/C(O)=C1\C(=O)CC(C)(C)CC1=Nc1ccccc1O | inconclusive: 10 µM [inhibitor, partial curve, poor fit] |  |
| COc1cccc(C=Nc2cc(C(C)C)c(O)cc2C)c1O | inconclusive: 7.94 µM [inhibitor, partial curve, poor fit] |  |
| CCc1nnc(NC(=O)CSc2nc3c([nH]c4ccccc43)c(=O)n2CCOC)s1 | inconclusive: 14.1 µM [inhibitor, single point] |  |
| CC[n+]1c(/C=C/C=C2/N(C)c3ccccc3C2(C)C)sc2ccccc21 | active: 1.3 µM |  |
| CC1CCc2[nH]c3ccc(C(=O)N4CCCC(C(F)(F)F)C4)cc3c2C1 (centres undefined) | inconclusive: 20 µM [inhibitor, single point] |  |
| CCS(=O)(=O)N1Cc2ccccc2CC1C(=O)Nc1ncc(C)s1 (centres undefined) | inactive |  |
| Cc1cc(F)ccc1NCC(=O)Nc1ccc(Br)cc1C | inactive |  |
| COc1ccc(-c2cnc(N)nc2-c2ccc(OCc3ccccc3)cc2O)cc1 | inconclusive: 6.31 µM [inhibitor, partial curve, poor fit] |  |
| CCc1cccc(CC)c1NC(=O)COC(=O)c1ccc2c(c1)S(=O)(=O)c1ccccc1C2=O | inconclusive: 1.26 µM [activator, partial curve, poor fit] |  |
| O=C(Cn1nc(C(F)(F)F)cc1C1CC1)Nc1ccccc1F | inactive |  |
| COc1cc(/C=N/NC(=O)c2ccncc2)ccc1OCC(=O)Nc1ccccc1 | inactive |  |
| O=C(/C=C/c1ccc2c(c1)OCO2)Nc1ccc(Cl)cn1 | inconclusive: 15.8 µM [inhibitor, partial curve, poor fit] |  |
| CCOC(=O)C1=C(CN2CCN(c3ccc(C)cc3C)CC2)NC(=O)NC1c1ccc(OC)cc1 (centres undefined) | inconclusive: 10 µM [inhibitor, partial curve] |  |
| CCN(CC)S(=O)(=O)c1cccc(C(=O)Nc2ccccc2C(=O)Nc2ccc(OC)cc2)c1 | inconclusive: 10 µM [inhibitor, partial curve, poor fit] |  |
| CCN(CC)S(=O)(=O)c1ccc(N2CCCCC2)c(NC(=O)c2ccncc2)c1 | inconclusive: 0.562 µM [activator, single point] |  |
| COc1ccc(NC(=O)c2c(N)cnn2C)cc1 | inactive |  |

| Compound | Potency | activity change, negative = inhibition |
| --- | --- | --- |
| O=C(NNC(=O)c1cc(-c2ccc(Cl)c(Cl)c2)nc2ccccc12)Nc1ccccc1 | inconclusive: 12.6 µM [inhibitor, partial curve] |  |
| Nc1ccc(Nc2ccccc2N)cc1 | inconclusive: 2.59 µM [inhibitor, full curve] |  |
| Cc1ccc(C(=O)NCCNC(=O)c2ccc(F)cc2)cn1 | inactive |  |
| COc1ccccc1-c1ccc(SCc2ccccc2F)nn1 | inconclusive: 6.31 µM [activator, single point] |  |
| CC(C)N(c1ccccc1)c1ccc(NC(=S)NCCN(C)C)cc1 | inconclusive: 35.5 µM [inhibitor, partial curve, poor fit] |  |
| COCc1cc(=O)n2[nH]c(-c3ccsc3-n3c(C)ccc3C)cc2n1 | inactive |  |
| COc1cccc(-c2nc(CS(=O)(=O)CC(=O)Nc3ccc(F)cc3F)c(C)o2)c1 | inconclusive: 14.1 µM [inhibitor, partial curve, poor fit] |  |
| CN1CCN(c2nc(-c3ccccc3)c3cc(Cl)ccc3n2)CC1 | inactive |  |
| CCN(CC)c1ccc(C2C(C(N)=O)=C(C)Nc3nc(SCc4ccccc4Cl)nn32)cc1 (centres undefined) | inconclusive: 5.62 µM [activator, single point] |  |
| COc1ccc2c(Cl)c(C(=O)NC3CCS(=O)(=O)C3)sc2c1 (centres undefined) | inactive |  |
| O=[N+]([O-])c1ccc(NC(=S)NCCc2ccccc2)cc1 | inconclusive: 16.4 µM [inhibitor, single point] |  |
| Cc1ccc(NC(=O)c2ccc(C)c(S(=O)(=O)N3CCCCCC3)c2)cc1 | inconclusive: 20 µM [inhibitor, partial curve, poor fit] |  |
| COc1ccc(OC(C)C(=O)NC2CC(C)(C)NC(C)(C)C2)cc1 (centres undefined) | inactive |  |
| COCCCNCCOc1ccc(C(C)(C)c2ccccc2)cc1 | inconclusive: 16.4 µM [inhibitor, single point] |  |
| c1ccc(-c2cccc(-c3ccccn3)n2)nc1 | active: 2.06 µM |  |
| CN(Cc1ccc2ccccc2c1)C(=O)c1ccc(C(F)(F)F)cc1 | inactive |  |
| COCCCNC(=O)c1ccc(Cn2c(=O)c3ccccc3n(Cc3ccc(Cl)cc3)c2=O)cc1 | inactive |  |
| O=c1cc(/C=C/c2cccs2)[nH]c2ccccc12 | active: 6.51 µM |  |
| CC1CC(C)C(=NNC(N)=O)C(C(O)CC2CCC(=O)NC2=O)C1 (centres undefined) | inconclusive: 25.1 µM [inhibitor, single point] |  |
| O=C(Nc1cc(S(=O)(=O)N2CCOCC2)ccc1N1CCOCC1)c1ccccc1Cl | inactive |  |
| Cc1cc(NC(c2ccc(Cl)cc2)c2ccc3cccnc3c2O)no1 (centres undefined) | inconclusive: 11.2 µM [inhibitor, partial curve, poor fit] |  |
| COc1ccc(/C=C/C(=O)Nc2ccc(-n3nncc3-c3ccccc3)cc2)cc1OC | inconclusive: 31.6 µM [inhibitor, single point] |  |
| Cc1ccc(-n2c(-c3ccccc3)c[n+]3c2CCC3)cc1 | inconclusive: 7.08 µM [inhibitor, partial curve, poor fit] |  |

| Compound | Potency | activity change, negative = inhibition |
| --- | --- | --- |
| CCOc1ccc(CNC(=O)c2cc3ccccn3n2)cc1 | inconclusive: 5.62 µM [inhibitor, single point] |  |
| CCn1c(SCC(=O)N2CCN(C(=O)c3ccco3)CC2)nnc1C(C)C |  | inconclusive: 1.45% [activator] [at 46.1 µM] |
| O=C(Nc1ccc2c(c1)OCCO2)c1cccn(Cc2ccccc2)c1=O | inconclusive: 35.5 µM [inhibitor, single point] |  |
| Cc1nc(-c2ccc(C(=O)Nc3ccc(F)cc3)cc2)cs1 | inconclusive: 11.2 µM [inhibitor, single point] |  |
| c1ccc(-c2cn3nc(-c4ccccc4)sc3n2)cc1 | inconclusive: 1.12 µM [inhibitor, full curve, poor fit] |  |
| O=[N+]([O-])c1nn(-c2ccccc2)n(O)c1=NCCc1ccccc1 | inconclusive: 20.6 µM [inhibitor, single point] |  |
| CC(=O)c1cccc(NC(=O)Cc2ccc3c(c2)CCCC3)c1 | inconclusive: 2.31 µM [inhibitor, full curve] |  |
| CC(C)CCC(C)NC(=O)CN1C(=O)NC(C)(c2ccc3ccccc3c2)C1=O (centres undefined) | inconclusive: 35.5 µM [inhibitor, single point] |  |
| CC(C)[C@H](NC(=O)c1ccccc1)C(=O)OCC(=O)Nc1ccc(S(=O)(=O)N2CCOCC2)cc1 | inconclusive: 25.1 µM [inhibitor, single point] |  |
| O=C1c2cccc(OCC(=O)N3N=C(c4cccs4)CC3c3ccc(F)cc3)c2CCN1Cc1cccnc1 (centres undefined) | inconclusive: 29.1 µM [inhibitor, single point] |  |
| COc1ccccc1NC(=O)c1cnn(-c2ccccc2)c1-n1cccc1 | inconclusive: 6.31 µM [activator, single point] |  |
| CCc1ccc(CN2CCN(Cc3ccc(SC)cc3)CC2)cc1 | inconclusive: 22.4 µM [inhibitor, single point] |  |
| COc1ccc(CCNC(=O)c2ccc(CNS(=O)(=O)c3cccc(Cl)c3)cc2)cc1OC | inconclusive: 35.5 µM [inhibitor, single point] |  |
| O=C(O)c1ccccc1C(=O)NCC(O)COc1ccc(Cl)cc1 (centres undefined) | inactive |  |
| CC(SCCc1ccccn1)C(=O)O (centres undefined) | inactive |  |
| CCOc1ccc(C2C(C(N)=O)=C(C)Nc3nc(SCc4ccccc4F)nn32)cc1 (centres undefined) | inactive |  |
| C=CCOc1cccc(/C=C2\C(=O)N(Cc3ccc(C)cc3)C(C)=C2C(=O)OC)c1 | inconclusive: 25.1 µM [inhibitor, single point] |  |
| Cc1ccc(CNC(=O)c2c(Nc3c(C)cccc3C)sc(C(=O)c3ccccc3)c2N)cc1 | inconclusive: 35.5 µM [inhibitor, single point] |  |
| O=C(N/N=C/c1ccccc1Cl)c1[nH]c2ccc(Br)cc2c1-c1ccccc1 | inconclusive: 10 µM [inhibitor, partial curve, poor fit] |  |
| O=[N+]([O-])c1ccc(-c2cnc(SCc3ccccc3Cl)[nH]2)cc1 | inactive |  |
| CN1C(=O)C(CC(=O)NC2CCCCC2)N(C)C1=O (centres undefined) | inconclusive: 1 µM [inhibitor, single point] |  |
| CC(C)c1cc(-c2nc(-c3ccc(Cl)cc3)no2)n[nH]1 | inconclusive: 2.82 µM [activator, partial curve, poor fit] |  |
| Cc1sc(NC(=O)CCCC(=O)O)c(C(N)=O)c1-c1ccccc1 | inconclusive: 35.5 µM [inhibitor, single point] |  |
